Results of single-concentration screens

Chains of the proteins cited; added tags and fusions are not shown. Residues count along the entry.
UniProt A4I591, 1-473: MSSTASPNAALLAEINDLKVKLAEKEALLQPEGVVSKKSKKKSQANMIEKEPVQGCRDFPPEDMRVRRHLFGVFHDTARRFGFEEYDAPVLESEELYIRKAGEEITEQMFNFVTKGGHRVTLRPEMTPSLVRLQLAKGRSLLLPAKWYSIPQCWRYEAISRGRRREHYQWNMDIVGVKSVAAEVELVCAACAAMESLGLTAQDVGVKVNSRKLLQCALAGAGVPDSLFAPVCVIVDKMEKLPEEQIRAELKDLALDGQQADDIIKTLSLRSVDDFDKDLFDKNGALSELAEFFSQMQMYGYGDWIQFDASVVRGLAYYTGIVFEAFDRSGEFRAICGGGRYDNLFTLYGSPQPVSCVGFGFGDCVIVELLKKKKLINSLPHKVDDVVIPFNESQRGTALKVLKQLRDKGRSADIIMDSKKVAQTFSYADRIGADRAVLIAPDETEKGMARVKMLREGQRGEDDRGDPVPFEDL

The values are deposited in ChEMBL (CHEMBL3988442, “University of Dundee, Small-Polar-MMV Screening Library” (2021)).

Values are the deposited “Percent Effect”, in %. The record does not define 0% and 100%; most values in the screen are far below 50% and negative numbers occur (in some assays of this library far below -100). The compounds are a random part of those screened.

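Histidine-tRNA ligase, Leishmania infantum (UniProt A4I591). Enzyme assay of histidyl-tRNA synthetase; the read-out is not stated. Tested at 30 µM. Direction is inferred from retests: higher values go with stronger inhibition. The assay is labelled LdHisRS but filed under L. infantum. Size under these conditions: about 69,000 compounds, about 410 of them at 50% or above in at least one test.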

Compound,percent effect
CC(C)CCN1CCN(CC(=O)Nc2ccc3nsnc3c2)CC1,-7.865
COC(=O)c1ccc(CNC(=O)Cc2csc(C(C)=O)c2)cc1,25
CNC(=O)C1CN(Cc2c[nH]cn2)CCN(C2CCOCC2)C1 (stereo not shown),8
Cc1ccc(NC2CCN(C(=O)c3ccc(C(N)=O)s3)CC2)nn1,5.172
Cc1cncc(C2CCCN2CCO)n1 (stereo not shown),9.929
CCOc1ccccc1CNC(=O)N1CCC(n2cncn2)CC1,7.018
Cc1nnc(SCCCNc2cc(C3CC3)ncn2)s1,-3.333
Cc1nc(C)n(CC2CN(CCOc3ccccc3C#N)CCO2)n1 (stereo not shown),12.07
CC(C)c1cnc(CNc2c(F)cccc2-n2cccn2)o1,10.58
O=C(CSC1=NS(=O)(=O)c2cc(F)ccc2N1)c1ccccc1,-22.47
CN1CCC(c2cnc(NCc3nccn3C)cn2)CC1,11.43
Cc1cc(=O)n(CCNS(=O)(=O)c2ccc(F)c(Cl)c2)cn1,23.91
NC(=O)CCC1CCCN(c2ccnc3cc(F)ccc23)C1 (stereo not shown),0
O=C(CCCc1ccc(Cl)cc1)N1CCN(C(=O)c2ccc[nH]2)CC1,18.75
Cc1cc(C)c(S(N)(=O)=O)cc1C(=O)NCC1Cc2ccccc2O1 (stereo not shown),16.13
Cn1cc(CN2CCc3onc(COc4cccnc4)c3C2)cn1,5.825
Cc1cccc(C)c1C(=O)N1C[C@@H](CN2CCOCC2)[C@@H](CO)C1,13.6
Cc1nn(C)cc1NC(=O)CN1CCC(Oc2cnccn2)CC1,7.042
CN(C)C(=O)c1cnc2n1CCN(Cc1ccncc1)C2,16
COCCCNc1cc(C(=O)N2CCOCC2)ccc1C,16
Cc1cc(CN(CCCO)c2ccccc2)on1,3.39
CCOC(C)c1nc(CN2CCN(CC(F)F)CC2)cs1 (stereo not shown),9.677
CC(C)S(=O)(=O)N1CCN(C(=O)c2cnn(C)c2Cl)CC1,8.621
CC(=O)Nc1cccc2c1ccn2CC(=O)Nc1ncc[nH]1,19.57
O=C(COC[C@@H]1CC[C@H]2[C@H](CCN2Cc2ccco2)O1)N1CCCC1,20.21
CCCc1cc(CN(C)C2CCSCC2)n[nH]1,14.4
Cc1ccc(C)c(OCCNC(=O)[C@@H]2CCCCN2)c1,15.38
CC(C)NCc1cc2n(n1)CCN(C1CCCCC1)C2,22.39
O=C(O)c1cc(S(=O)(=O)Nc2cc(F)cc(F)c2)cc2c1OCCO2,6.087
COc1ccc([C@@H]2CN(c3cc(C(=O)O)ccn3)C[C@H]2N(C)C)cc1,-4.167
Cc1cccc(NC(=O)N2CCOCC(CN(C)C)C2)c1C (stereo not shown),12.4
CCCc1noc(-c2cn(CC(=O)N(CC)CC)nn2)n1,13.11
CC(C)c1nnc2n1CCN(C(=O)CN1CCc3sccc3C1)C2,29.6
O=C(CN(CC(O)c1ccc(F)cc1)C1CC1)Nc1cccnc1 (stereo not shown),2.469
O=C(CCNC(=O)c1ccoc1)Nc1ccc(F)cc1F,13.22
CN(CCC#N)C(=O)CSc1cc(F)ccc1F,22.22
O=C(NCc1ccccc1CO)Nc1ccc2c(c1)CCC2,8.333
CCC1CN(C)c2ccccc2CN1C(=O)CCn1cncn1 (stereo not shown),9.821
O=C(NC1CC1)c1cn(C2CCN(c3cc(C4CC4)ncn3)CC2)nn1,14.52
Cc1ccn2ncc(C(=O)N3CCCC(n4nc(C)nc4C)C3)c2n1 (stereo not shown),14.88
Cc1cc(C2CCCN2C(=O)NCc2c(C)cc(C)[nH]c2=O)on1 (stereo not shown),14.04
Cc1cc(CN2C[C@@H]3COC[C@]3(CNS(C)(=O)=O)C2)no1,2.941
CC(C)c1nnc(NC(=O)Cc2ccc(F)cc2)[nH]1,11.2
Cc1cccc(C(=O)N2CCc3ncnc(C4CCOC4)c3CC2)n1 (stereo not shown),9
Cc1cccnc1CN1CCN(CC(=O)N(C)C)[C@@H]2CS(=O)(=O)C[C@@H]21,2.74
O=C(NS(=O)(=O)c1cnn(-c2ccccc2F)c1)c1ccco1,1.724
Cc1ccc(CNC(=O)NC2CCCN(c3ncccn3)C2)n1C (stereo not shown),16.98
CCC(=O)N1CCN(C(=O)c2ccc(COC)o2)[C@H]2CS(=O)(=O)C[C@H]21,8
Cc1cc(CNc2ccc3nc(C4CC4)sc3c2)no1,27.59
O=C(NC[C@H]1OC[C@@H](NC2CCOCC2)[C@@H]1O)c1cccs1,22.22
Cc1cccnc1NC(=O)C1CCN(C(C)C(=O)NC(C)(C)C)CC1 (stereo not shown),21.13
Cc1ccc(C(=O)N2CC[C@H]3[C@@H]2CCC(=O)N3c2cccnc2)o1,5
Cc1cc(C2CCCN2Cc2cc(=O)n(C)c(=O)n2C)on1 (stereo not shown),14.86
CCN(CC)Cc1ccc(C(=O)N2CCCC2c2cnn(C)c2)o1 (stereo not shown),17.31
CCc1nnc(CN2CC(n3cccn3)C2)o1,9.333
NC(=O)N1CCCN(CCCSCc2ccccc2)CC1,-1.571
CC(NC(=O)N1CCCC1)c1ccc(S(N)(=O)=O)cc1 (stereo not shown),17.7
Cc1ccoc1C(=O)NCc1ccnc(OCC(F)(F)F)c1,19.64
CC(C)(C)c1cc(NC(=O)C2COCCO2)n(-c2ccccn2)n1 (stereo not shown),25.37
O=C1CC[C@]2(CC[C@@H](NCc3ccsc3)CC2)N1Cc1ccccc1,25
Cc1ccnc(NCC2(N(C)C)CCOCC2)n1,10
Cc1cc(C)n(-c2cncc(NCCNC(=O)C3CCCC3)n2)n1,15.38
COc1cccc(NC(=O)NCC(O)c2ccc(F)cc2F)c1 (stereo not shown),7.018
O=C1C[C@H]2CC[C@@H](CN1)N2C(=O)CCc1ccccc1,8.392
COc1ccc2c(c1)CCCN2C(=O)NC1CCCCNC1=O (stereo not shown),17.05
Cc1ccc(S(=O)(=O)Nc2ccc(N3CCOCC3)cn2)cc1,22.37
COc1ccc(F)c(CN2CCCC3(CCN(C4CCOCC4)C3)C2)c1 (stereo not shown),9.589
CCc1ccccc1CN1CCn2nc(CNC(C)=O)cc2C1,18.07
Cc1cccc(C2CCCCCN2C(=O)c2cn(CC(N)=O)nn2)c1 (stereo not shown),14.94
O=C(Cc1ccccc1F)N1CCN(C(=O)c2ccoc2)CC1,20
Cc1nc(N2CCCC2C(=O)NCc2ccsc2)nc2ccccc12 (stereo not shown),8
CCOc1ccc(CC(=O)N2C[C@H](C3CC3)[C@@H](N)C2)cc1,17.58
COc1nc2c(cc1C(=O)NCc1noc(-c3ccco3)n1)CCC2,7.143
CC(C)N1CCC(NCc2cccnc2N(C)C)CC1,18.45
Cc1nn(C)c(C)c1C1CCCN1Cc1nc2ccccc2c(=O)[nH]1 (stereo not shown),15.38
CS(=O)(=O)c1ncc(CN2CCN3CCCC3C2)n1CC1CCCCC1 (stereo not shown),12.12
COCCOc1ccccc1CNCc1c(C)nn(C)c1N(C)C,14.29
OC(c1ccccc1)C1CCN(Cc2csc(-c3ncccn3)n2)CC1 (stereo not shown),16.51
COc1ncc(CN2CCCC(c3[nH]ncc3S(C)(=O)=O)C2)cn1 (stereo not shown),10.14
CC(C)c1nnc2n1CCN(C(=O)c1ccc3c(c1)CCC3)C2,3.571
Cc1occc1C(=O)N1CCC2(CCCN(Cc3cccs3)C2)C1 (stereo not shown),34.25
COC(=O)c1ccc(CN(C(C)C)C(C)C)o1,1.961
CN1CCN(C2CCOCC2)CC12CCC(=O)N(CC1CC1)CC2 (stereo not shown),8.197
COc1ccc(CN(Cc2cncn2C)CC2CCCO2)cc1OC (stereo not shown),16.67
O=C(NCc1cnc2n1CCN(CC1CCOCC1)C2)c1ccno1,16

The last 10 entries again:

| Compound | percent effect |
|---|---|
| `CS(=O)(=O)c1ncc(CN2CCN3CCCC3C2)n1CC1CCCCC1` (stereo not shown) | 12.12 |
| `COCCOc1ccccc1CNCc1c(C)nn(C)c1N(C)C` | 14.29 |
| `OC(c1ccccc1)C1CCN(Cc2csc(-c3ncccn3)n2)CC1` (stereo not shown) | 16.51 |
| `COc1ncc(CN2CCCC(c3[nH]ncc3S(C)(=O)=O)C2)cn1` (stereo not shown) | 10.14 |
| `CC(C)c1nnc2n1CCN(C(=O)c1ccc3c(c1)CCC3)C2` | 3.571 |
| `Cc1occc1C(=O)N1CCC2(CCCN(Cc3cccs3)C2)C1` (stereo not shown) | 34.25 |
| `COC(=O)c1ccc(CN(C(C)C)C(C)C)o1` | 1.961 |
| `CN1CCN(C2CCOCC2)CC12CCC(=O)N(CC1CC1)CC2` (stereo not shown) | 8.197 |
| `COc1ccc(CN(Cc2cncn2C)CC2CCCO2)cc1OC` (stereo not shown) | 16.67 |
| `O=C(NCc1cnc2n1CCN(CC1CCOCC1)C2)c1ccno1` | 16 |